Experimental data: PubChem BioAssay AID652272 (Drosophila RNAi Screening Center, 2013)
Screen: 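Genes whose knock-down decreases or increases Hedgehog reporter output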 (primary screen). Cells: Drosophila clone 8 (Cl8) cells. Reagents: long dsRNA against Drosophila genes. Read-out: 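Plate reader light from a firefly reporter under a ptc promoter fragment that responds to Hedgehog, with Renilla light as transfection reference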. Reading the numbers: firefly Hh reporter signal: higher = more ptc reporter light; Renilla reference signal: higher = more Renilla control light. Active means: 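Hit when the z-score averaged over two replicates is under -2 or over +3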. Meaning of the calls: active = hit: reporter lowered or raised; inactive = not a hit.
In all, the deposit lists about 21,000 reagents; shown is a random part of those that have a named target and a result. In the full data, 503 (2.4%) are marked active. 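Raw plate light values, not normalised; calls rest on replicate z-scores that were not deposited; hits include reporter decreases as well as increases.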 Entries without a mark were called inactive. Reagents against one gene are numbered here. Names joined by + are all predicted targets of the reagent. The record does not give: the amount of reagent, the time to read-out.

Target gene,dsRNA no.,"firefly Hh reporter signal, replicate 1","firefly Hh reporter signal, replicate 2","firefly Hh reporter signal, replicate 3","Renilla reference signal, replicate 1","Renilla reference signal, replicate 2"
CG8508,1,1.43e5,1.35e5,,5261,5335
Ald1,1,82995,89804,,1840,2311
Hibch,1,1.55e5,1.15e5,,5864,3088
CG11360,1,4.99e5,1.95e5,,26149,4899
CG11360,2,78008,1.72e5,,1896,6925
Gyf,1,1.04e5,49332,,2653,1957
stac,1,63687,1.61e5,,15416,2172
stac,2,4.12e5,84225,,20940,2688
nerfin-1,1,67140,46100,,2304,3364
mthl9,1,82833,48297,,2963,3545
Ste:CG33238 + Ste:CG33241 + Ste:CG33236 + 11 more,1,5.44e5,1.73e5,,32583,4029
Ste:CG33238 + Ste:CG33241 + Ste:CG33236 + 11 more,2,1.03e5,2.31e5,,3757,9564
CG42471,1,5.96e5,2.70e5,,30296,10656
CG11698,1,6.51e5,1.20e5,,4268,4268
trem,1,5.95e5,1.20e5,,30134,3133
Ostgamma,1,58453,37749,,2128,1712
CG16989,1,75179,1.64e5,,3003,6809
CG15034,1,73171,2.92e5,,2925,10054
Nop56,1,77980,67725,,3861,3275
YL-1,1,1.75e5,54594,,3786,3912
CG43253 (retired record),1,2.77e5,,,6427,
Sec31,1,59714,32445,,2888,1478
CG33630,1,66437,87216,,2375,2503
blp,1,67634,89110,,1520,2544
Cpr76Bc,1,1.60e5,1.51e5,,5797,3516
CG42553,1,88377,41607,,2800,3290
faf,1,81072,2.22e5,,3084,9128
nenya,1,44379,1.69e5,,12528,3923
tei,1,1.05e5,72521,,2592,3824
CG12849,1,1.32e5,59670,,3152,2212
CG17801,1,5.34e5,1.08e5,,29649,3254
CG12702,1,58020,1.21e5,,1277,5770
AANATL3,1,73608,67442,,2196,5825
Pur-alpha,1,1.43e5,1.19e5,,2733,3589
yellow-d2,1,58624,61890,,1529,5050
Oatp74D,1,3.86e5,,,7474,
Oatp74D,2,1.19e5,81629,,4304,3271
CG7352,1,90550,1.64e5,,3430,4880
CG17855,1,1.06e5,46154,,3217,5185
CG6277,1,1.12e5,1.27e5,,4032,3844
Cht9,1,95101,44704,,3664,1916
Naus,1,56672,82362,,3612,4102
Naus,2,73079,40989,,2201,3521
CG4554,1,55155,57184,,2284,2657
firl,1,1.07e5,41724,,2681,4621
CG18598,1,5.76e5,68128,,27552,1681
l(3)04053,1,2.10e5,4.41e5,1.42e5,7424,25940
CG44098,1,1.27e5,1.59e5,,3344,3890
CG44098,2,63400,75542,,2875,3059
CG44098,3,98045,1.37e5,,2955,3643
MsrA,1,1.12e5,,,5139,3341
ETH + asRNA:CR43257,1,1.16e5,44725,,2737,2071
Gapdh1,1,68768,42929,,1645,3831
CG42390,1,1.10e5,49143,,4144,1777
Dop1R1,1,30177,1.94e5,,5288,3994
Dop1R1,2,31739,1.64e5,,5593,2288
Dop1R1,3,1.05e5,1.10e5,,2541,2627

Limited to “firefly Hh reporter signal, replicate 1” (3 entries from above):
Gapdh1: 68768
CG42390: 1.10e5
Dop1R1 #1: 30177
